# Structures can show the parent of a compound that is named as a salt. Some of these results come from one statement about several compounds together.
# The chains behind the UniProt entries cited, without tags or fusion partners. Residues count along the entry.
# UniProt Q05941, 23-502: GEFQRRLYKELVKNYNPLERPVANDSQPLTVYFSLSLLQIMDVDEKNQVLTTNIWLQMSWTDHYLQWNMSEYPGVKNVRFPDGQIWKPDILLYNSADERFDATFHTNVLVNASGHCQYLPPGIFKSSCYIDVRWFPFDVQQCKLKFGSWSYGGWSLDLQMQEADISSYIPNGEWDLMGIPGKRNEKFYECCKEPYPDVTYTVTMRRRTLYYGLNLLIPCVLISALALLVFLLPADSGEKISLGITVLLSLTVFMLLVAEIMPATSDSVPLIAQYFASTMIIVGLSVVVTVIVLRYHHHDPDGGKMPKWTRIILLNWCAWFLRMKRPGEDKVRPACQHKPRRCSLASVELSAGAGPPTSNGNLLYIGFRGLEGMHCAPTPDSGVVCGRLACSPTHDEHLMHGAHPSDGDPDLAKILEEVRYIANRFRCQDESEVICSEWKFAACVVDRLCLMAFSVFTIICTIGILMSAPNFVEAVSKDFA
# Biological target: α7-subtype of nicotinic receptors (Rattus norvegicus, UniProt Q05941)
# Settings: read-out: IC50 (concentration of the test substance which inhibits the specific binding of 3H-α-bungarotoxin by 50%); rat cerebral cortex homogenate; 3H-α-bungarotoxine 2 nM; 2 hours at 37° C.
row,SMILES,IC50 [nM]
1,"C(#Cc1ccc(OC2CN3CCC2CC3)nn1)c1ccccc1 (racemic) [Compound C1, (±)-3-(6-Phenylethynyl-pyridazin-3-yloxy)-1-aza-bicyclo[2.2.2]octane fumaric acid salt]",< 1000
2,"CC(=O)Nc1ccc(C#Cc2ccc(OC3CN4CCC3CC4)nn2)cc1 (racemic) [Compound C6, (±)-N-{4-[6-(1-Aza-bicyclo[2.2.2]oct-3-yloxy)-pyridazin-3-ylethynyl]-phenyl}-acetamide free base]",< 1000
3,"Nc1cccc(C#Cc2ccc(OC3CN4CCC3CC4)nn2)c1 (racemic) [Compound C7, (±)-3-[6-(1-Aza-bicyclo[2.2.2]oct-3-yloxy)-pyridazin-3-ylethynyl]-phenylamine free base]",< 1000
4,"Nc1ccc(C#Cc2ccc(OC3CN4CCC3CC4)nn2)cc1 (racemic) [Compound C8, (±)-4-[6-(1-Aza-bicyclo[2.2.2]oct-3-yloxy)-pyridazin-3-ylethynyl]-phenylamine free base]",< 1000
5,"C(#Cc1ccc(OC2CN3CCC2CC3)nn1)c1ccsc1.O=C(O)/C=C/C(=O)O (racemic) [Compound C10, (±)-3-(6-Thiophen-3-ylethynyl-pyridazin-3-yloxy)-1-aza-bicyclo[2.2.2]octane fumaric acid salt]",< 1000
